According to patent publication US7238213B2, “Cell-based assays employing voltage and calcium dyes” (priority 2001, dated 2007):

Experiments:
[1] = Quenching efficiency of dye quenchers on voltage dye fluorescence, cell-free solution; conditions: for Quenching Efficiency Residual F (k): HLB30602 10 μM, quencher dye 0.5 g/L; for Quenching Efficiency F0/F: fluorescence of HLB30602 10 μM in absence/presence of quencher dye 0.5 g/L
[2] = Concentration-dependent quenching of extracellular fluorescence (Stern-Volmer fit)

Row | Molecule | Quenching Efficiency Residual F (k) [1] | Quenching Efficiency F0/F [1] | half-quenching concentration ([2]; FIG. 18) | half-quenching concentration ([2]; FIG. 18, converted from g/L)
1 | O=S(=O)([O-])c1cc(O)c2c(/N=N/c3ccc(Nc4ccccc4)c4c(S(=O)(=O)[O-])cccc34)cc(S(=O)(=O)[O-])cc2c1.[Na+].[Na+].[Na+] [Acid Blue 92] | 57.60 k | 36 | – | –
2 | O=S(=O)([O-])c1cccc(N=Nc2ccc(N=Nc3ccc(Nc4ccccc4)c4c(S(=O)(=O)[O-])cccc34)c3ccccc23)c1.[Na+].[Na+] [Acid Blue 113] | 112.50 k | 19 | – | –
3 | CCN(CC)c1ccc(C(=C2C=CC(=[N+](CC)Cc3cccc(S(=O)(=O)[O-])c3)C=C2)c2ccc(N(CC)Cc3cccc(S(=O)(=O)[O-])c3)cc2)cc1.[Na+] [Acid Violet 17] | 6.90 k | 304 | – | –
4 | O.O=C1c2ccccc2C(=O)c2c1cc(S(=O)(=O)[O-])c(O)c2O.[Na+] [Alizarin Red S monohydrate] | 335.10 k | 6 | – | –
5 | CC(=O)Nc1ccc(S(=O)(=O)[O-])c2cc(S(=O)(=O)[O-])c(N=Nc3ccc(N=Nc4ccc(S(=O)(=O)[O-])cc4)c4ccc(S(=O)(=O)[O-])cc34)c(O)c12.[Na+].[Na+].[Na+].[Na+] [Brilliant Black BN] | 19.30 k | 109 | – | –
6 | O=S1(=O)OC(c2cc(Cl)c(O)c(Br)c2)(c2cc(Cl)c(O)c(Br)c2)c2ccccc21 [Bromochlorophenol Blue] | 421.00 k | 5 | – | –
7 | Cc1cc(C2(c3cc(C)c(O)c(Br)c3)OS(=O)(=O)c3ccccc32)cc(Br)c1O [Bromocresol Purple] | 115.60 k | 18 | – | –
8 | O=S1(=O)OC(c2cc(Br)c(O)c(Br)c2)(c2cc(Br)c(O)c(Br)c2)c2ccccc21 [Bromophenol Blue] | 44.90 k | 47 | – | –
9 | O=c1c(Br)cc2c(-c3ccccc3S(=O)(=O)O)c3cc(Br)c(O)c(O)c3oc-2c1O [Bromopyrogallol Red] | 31.60 k | 66 | – | –
10 | O=S1(=O)OC(c2ccc(O)c(Cl)c2)(c2ccc(O)c(Cl)c2)c2ccccc21 [Chlorophenol Red] | 62.40 k | 34 | – | –
11 | Cc1cc(-c2ccc(/N=N/c3c(S(=O)(=O)O)cc4cc(S(=O)(=O)O)cc(N)c4c3O)c(C)c2)ccc1/N=N/c1c(S(=O)(=O)O)cc2cc(S(=O)(=O)O)cc(N)c2c1O [HLB30702 (Trypan Blue), Trypan Blue] | 5.50 k | 382 | – | –
12 | C[N+](C)=c1ccc2nc3c(ccc4ccccc43)oc-2c1.[Cl-] [MELDOLA'S BLUE] | 2.10 k | 1000 | – | –
13 | CCN(CC)c1ccc2nc3ccc(N)cc3[n+](-c3ccccc3)c2c1.[Cl-] [Methylene Violet 3Rax] | 87.40 k | 24 | – | –
14 | CC1=CC(=C(c2ccc(N)c(C)c2)c2ccc(N)c(C)c2)C=CC1=N.Cl [New Fuchsin] | 3.40 k | 618 | – | –
15 | Nc1c(N=Nc2ccc([N+](=O)[O-])cc2)c(S(=O)(=O)[O-])cc2cc(S(=O)(=O)[O-])cc(O)c12.[Na+].[Na+] [Nitro Red] | 62.10 k | 34 | – | –
16 | Cc1cc(O)c(C(C)C)cc1C1(c2cc(C(C)C)c(O)cc2C)OS(=O)(=O)c2ccccc21 [Thymol Blue] | 699.00 k | 3 | – | –
17 | Cc1cc(-c2ccc(/N=N/c3c(S(=O)(=O)O)cc4cc(S(=O)(=O)O)cc(N)c4c3O)c(C)c2)ccc1/N=N/c1c(S(=O)(=O)O)cc2cc(S(=O)(=O)O)cc(N)c2c1O [Trypan Blue (Fluka), Trypan Blue] | 26.10 k | 80 | – | –
18 | Cc1cc(C2(c3cc(C)c(O)c(CN(CC(=O)O)CC(=O)O)c3)OS(=O)(=O)c3ccccc32)cc(CN(CC(=O)O)CC(=O)O)c1O [XYLENOL ORANGE] | 164.90 k | 13 | – | –
19 | Cc1cc(-c2ccc(/N=N/c3ccc4c(S(=O)(=O)O)cc(S(=O)(=O)O)c(N)c4c3O)c(C)c2)ccc1/N=N/c1ccc2c(S(=O)(=O)O)cc(S(=O)(=O)O)c(N)c2c1O [evans blue] | – | – | 0.38 g/L | 0.34 mM
20 | DIAZINE BLACK | 9.30 k | 226 | – | –
21 | Direct Violet 51 | 152.00 k | 14 | – | –
22 | Nitrazine Yellow | 59.80 k | 35 | – | –
23 | Sulfonazo II | 98.70 k | 21 | – | –
